Measurements reported in PubChem BioAssay AID652259 (Drosophila RNAi Screening Center, 2013)

- Aim: 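Genome-wide hunt for genes that control Wingless pathway activity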 (primary screen)
- System: Drosophila clone 8 imaginal disc epithelial cells
- Reagent: long dsRNA against Drosophila genes
- Challenge: pathway stimulated by co-transfected Wingless expression plasmid
- Read-out: 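Firefly luciferase from a tcf-site Wingless reporter, measured alongside co-transfected Renilla luciferase that tracks transfection; pathway stimulated by a Wingless plasmid; the firefly-to-Renilla ratio is not deposited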
- Reading the numbers: firefly reporter light: higher = more Wg reporter light, before normalisation; Renilla control light: higher = more transfected or surviving cells
- Active means: 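Strong candidates differ from their plate mean by at least two out of four per-plate statistical tests; weak candidates meet just one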
- Meaning of the calls: active = candidate regulator (raises or lowers reporter); inactive = not a candidate
In all, the deposit lists about 22,000 reagents; this is an unselected part of those that have a named target and a result. Of all reagents, 233 (1.1%) were called active. 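Light values are raw, unnormalised plate reads; the ratio scores behind the reporter calls were not deposited.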 A plus sign joins genes that one reagent is predicted to hit. The record does not give: the amount of reagent, the time to read-out, the dose of the treatment.

target | DRSC id | reporter change call, replicate 1 | firefly reporter light, replicate 1 | firefly reporter light, replicate 2 | Renilla control light, replicate 1 | Renilla control light, replicate 2 | call
CG33309 (GeneID 2768926) | DRSC01421 | – | 19831 | – | 8218 | – | inactive
eIF4E4 (GeneID 38743) | DRSC09701 | – | 580 | 3232 | 800 | 2233 | inactive
AkhR (GeneID 33942) | DRSC03329 | – | 10138 | – | 4745 | – | inactive
CG17221 (GeneID 33521) | DRSC00487 | – | 3388 | 6193 | 919 | 2268 | inactive
spen (GeneID 44205) | DRSC00839 | – | 7201 | – | 2945 | – | inactive
Rad1 + Sws1 | DRSC00778 | – | 3152 | 8080 | 1248 | 2913 | inactive
CG3339 (GeneID 43295) | DRSC13821 | – | 3125 | – | 1436 | – | inactive
CG3339 (GeneID 43295) | DRSC15479 | – | 5947 | – | 3767 | – | inactive
E(spl)mdelta-HLH (GeneID 43150) | DRSC16698 | – | 17121 | – | 12384 | – | inactive
Spn75F (GeneID 317912) | DRSC09589 | – | 2707 | – | 1031 | – | inactive
CG9184 (GeneID 38152) | DRSC08636 | – | 9685 | – | 4243 | – | inactive
CG9184 (GeneID 38152) | DRSC22184 | – | 3.69e5 | 3.53e5 | 1.74e5 | 1.58e5 | inactive
CG4650 (GeneID 34859) | DRSC02767 | – | 3154 | 6139 | 1552 | 3392 | inactive
CG10710 (GeneID 39525) | DRSC09784 | – | 4933 | – | 2116 | – | inactive
CG31115 (GeneID 318597) | DRSC13692 | – | 2279 | – | 1223 | – | inactive
Su(var)2-10 (GeneID 35927) | DRSC07721 | Wg reporter activity raised | 27276 | – | 2288 | – | active
CG5267 (GeneID 36875) | DRSC06928 | – | 6656 | – | 2209 | – | inactive
Rpp21 (GeneID 318857) | DRSC22480 | – | 7.52e5 | 7.30e5 | 3.34e5 | 1.83e5 | inactive
CG14147 (GeneID 39227) | DRSC10149 | – | 4806 | – | 2114 | – | inactive
CG17571 (GeneID 35409) | DRSC01768 | – | 17977 | – | 8913 | – | inactive
CG17571 (GeneID 35409) | DRSC03755 | – | 2648 | 5005 | 890 | 2372 | inactive
CG5191 (GeneID 42431) | DRSC15733 | – | 3910 | 12372 | 1920 | 3112 | inactive
CG5191 (GeneID 42431) | DRSC15734 | – | 15032 | – | 3237 | – | inactive
CG5191 (GeneID 42431) | DRSC21559 | – | 3.65e5 | 4.09e5 | 1.71e5 | 1.68e5 | inactive
ND-30 (GeneID 38378) | DRSC08243 | – | 7196 | – | 2874 | – | inactive
Rh3 (GeneID 42398) | DRSC16822 | – | 2449 | 8203 | 982 | 1940 | inactive
CG14089 (GeneID 40101) | DRSC10093 | – | 14953 | – | 4454 | – | inactive
PPP4R2r (GeneID 31979) | DRSC18695 | – | 32604 | – | 15306 | – | inactive
PPP4R2r (GeneID 31979) | DRSC21503 | – | 8.11e5 | 8.52e5 | 4.44e5 | 3.89e5 | inactive
knon (GeneID 36845) | DRSC07049 | – | 5801 | – | 1979 | – | inactive
CG31798 (GeneID 318946) | DRSC01702 | – | 19207 | – | 8560 | – | inactive
CG30065 (GeneID 246431) | DRSC05420 | – | 19378 | – | 16125 | – | inactive
CG7884 (GeneID 32914) | DRSC20065 | – | 9877 | – | 8389 | – | inactive
CG10301 (GeneID 42797) | DRSC14226 | – | 12816 | – | 9864 | – | inactive
CG17560 (GeneID 42022) | DRSC15242 | – | 12746 | – | 3953 | – | inactive
edl (GeneID 37149) | DRSC06516 | – | 14005 | – | 5240 | – | inactive
Vps16A (GeneID 41107) | DRSC16422 | – | 10004 | – | 1859 | – | inactive
CG17816 (GeneID 40928) | DRSC15277 | – | 11340 | – | 4016 | – | inactive
Cpr47Ed (GeneID 36192) | DRSC07331 | – | 5403 | – | 2226 | – | inactive
CalpB (GeneID 39165) | DRSC11109 | – | 3959 | – | 1496 | – | inactive
Mpcp1 (GeneID 37297) | DRSC07337 | – | 6816 | – | 2358 | – | inactive
CG9636 (GeneID 40967) | DRSC16529 | – | 8037 | – | 2759 | – | inactive
RpL27 (GeneID 43103) | DRSC15638 | – | 11552 | – | 8041 | – | inactive
CG12535 (GeneID 31311) | DRSC17838 | – | 24825 | – | 20904 | – | inactive
CG43174 (retired record) + CG43173 (retired record) | DRSC09517 | – | 2073 | – | 1240 | – | inactive
Marcal1 (GeneID 33709) | DRSC02718 | Wg reporter activity lowered | 1404 | 3949 | 901 | 1712 | active
CG33308 (GeneID 2768925) | DRSC01419 | – | 15462 | – | 6547 | – | inactive
Nemp (GeneID 32639) | DRSC20206 | – | 2289 | 5106 | 1049 | 1387 | inactive
CG14655 (GeneID 40594) | DRSC12241 | – | 3725 | – | 1525 | – | inactive
HDAC4 (GeneID 32278) | DRSC19780 | – | 24812 | – | 12104 | – | inactive
AsnRS (GeneID 35194) | DRSC01990 | – | 7846 | – | 2388 | – | inactive
CG3819 (GeneID 40069) | DRSC10378 | – | 11545 | – | 2459 | – | inactive
ReepA (GeneID 37643) | DRSC04572 | – | 7894 | – | 1955 | – | inactive
ReepA (GeneID 37643) | DRSC22475 | – | 5.83e5 | 5.74e5 | 1.99e5 | 1.62e5 | inactive
Sld5 (GeneID 43166) | DRSC14892 | – | 20976 | – | 17109 | – | inactive
Tsp42Eh (GeneID 35617) | DRSC06190 | – | 3008 | 7464 | 890 | 3504 | inactive
CG18262 (GeneID 31745) | DRSC18149 | – | 24429 | – | 10176 | – | inactive
CG8141 (GeneID 41622) | DRSC16387 | – | 14227 | – | 2481 | – | inactive
Cyp313a5 (GeneID 41486) | DRSC16628 | – | 20432 | – | 5466 | – | inactive
JTBR (GeneID 38235) | DRSC08667 | – | 4586 | – | 2261 | – | inactive
PIG-C (GeneID 38410) | DRSC08241 | – | 4369 | – | 2018 | – | inactive
CG31121 (GeneID 42975) | DRSC15361 | – | 16240 | – | 14348 | – | inactive
CG31121 (GeneID 42975) | DRSC15363 | – | 19179 | – | 14344 | – | inactive
Best3 (GeneID 39661) | DRSC09880 | – | 3974 | – | 2813 | – | inactive
Brd7-9 (GeneID 34062) | DRSC03017 | – | 8516 | – | 4103 | – | inactive
CG1231 (GeneID 38060) | DRSC08267 | – | 4320 | – | 3100 | – | inactive
GlnRS (GeneID 45786) | DRSC14140 | – | 7843 | 7296 | 1172 | 775 | inactive
Polr3A (GeneID 32524) | DRSC19766 | – | 16288 | – | 7440 | – | inactive
Bug22 (GeneID 34429) | DRSC02842 | – | 2379 | 5350 | 893 | 1997 | inactive
Pp1alpha-96A (GeneID 42922) | DRSC16795 | – | 26080 | – | 18729 | – | inactive
Bruce (GeneID 41260) | DRSC16015 | – | 7325 | – | 1946 | – | inactive
CG30480 (GeneID 246640) | DRSC06736 | – | 3859 | – | 2091 | – | inactive
bchs (GeneID 33819) | DRSC03126 | – | 1322 | 7133 | 652 | 1067 | inactive
IFT20 + CG10395 | DRSC22660 | – | 8.40e5 | 6.83e5 | 2.98e5 | 76 | inactive
CG15515 (GeneID 43538) | DRSC15054 | – | 6653 | – | 2738 | – | inactive
CG42329 (GeneID 33312) | DRSC00373 | – | 2332 | 5917 | 1072 | 2438 | inactive
CG42329 (GeneID 33312) | DRSC00682 | – | 1936 | 6640 | 912 | 3014 | inactive
CG2854 (GeneID 31219) | DRSC18595 | – | 16043 | – | 15521 | – | inactive
GstD1 (GeneID 41503) | DRSC16683 | – | 23620 | – | 5640 | – | inactive
CG15399 (GeneID 33472) | DRSC00413 | – | 2758 | 6480 | 1432 | 2696 | inactive
Frl (GeneID 39561) | DRSC09300 | – | 3220 | – | 1392 | – | inactive
Frl (GeneID 39561) | DRSC10027 | – | 4563 | – | 2006 | – | inactive
Frl (GeneID 39561) | DRSC10716 | – | 5660 | – | 2651 | – | inactive
CG30002 (GeneID 246384) | DRSC05182 | – | 13707 | – | 7828 | – | inactive
CG34054 (GeneID 3885601) | DRSC05277 | – | 27504 | – | 22781 | – | inactive
Nup205 (GeneID 33002) | DRSC19432 | Wg reporter activity raised | 7285 | 14505 | 928 | 2269 | active
Gr97a (GeneID 117338) | DRSC13802 | – | 3283 | – | 1604 | – | inactive
Ssu72 (GeneID 32973) | DRSC19572 | – | 18933 | – | 11885 | – | inactive
mud (GeneID 44839) | DRSC19019 | – | 4010 | – | 1099 | – | inactive
CG42238 (GeneID 7354398) | DRSC03180 | – | 12185 | – | 3040 | – | inactive
CG15599 (GeneID 32503) | DRSC19668 | – | 14172 | – | 7505 | – | inactive
CG14329 (GeneID 42116) | DRSC14808 | – | 21398 | – | 4423 | – | inactive
CG31823 (GeneID 326163) | DRSC01887 | – | 2956 | 7441 | 1129 | 3458 | inactive
